Literature values, collected in patent publication US20240083844A1, “KINASE INHIBITORS AND USES THEREOF” (ABM Therapeutics Corporation, priority 2020, published 2024).
For at least one compound, name, drawing or mass did not settle the structure.

Tested on: MEK1/2 enzyme
Conditions: background statement; cited from earlier work

## CC(=O)Nc1cccc(-n2c(=O)n(C3CC3)c(=O)c3c(Nc4ccc(I)cc4F)n(C)c(=O)c(C)c32)c1 [Trametinib]
  inhibits the MEK1/2 enzyme: low nanomolar range
